# Screening data, single-dose tests

The chains behind the UniProt entries cited, without tags or fusion partners. Residues count along the entry.
UniProt Q4DA54, 1-478: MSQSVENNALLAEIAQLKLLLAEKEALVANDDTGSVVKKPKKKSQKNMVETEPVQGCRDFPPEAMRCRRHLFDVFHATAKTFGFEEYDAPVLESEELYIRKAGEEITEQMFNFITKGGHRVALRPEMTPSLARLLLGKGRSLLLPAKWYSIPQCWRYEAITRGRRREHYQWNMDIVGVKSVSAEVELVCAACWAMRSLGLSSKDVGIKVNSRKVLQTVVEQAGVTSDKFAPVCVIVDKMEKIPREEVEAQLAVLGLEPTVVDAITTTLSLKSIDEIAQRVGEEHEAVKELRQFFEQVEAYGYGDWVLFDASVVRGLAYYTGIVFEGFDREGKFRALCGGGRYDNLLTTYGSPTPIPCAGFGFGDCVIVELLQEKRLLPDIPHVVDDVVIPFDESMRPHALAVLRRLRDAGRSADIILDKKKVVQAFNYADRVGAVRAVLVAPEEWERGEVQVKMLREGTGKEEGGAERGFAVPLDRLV
UniProt P9WPC5, whole entry: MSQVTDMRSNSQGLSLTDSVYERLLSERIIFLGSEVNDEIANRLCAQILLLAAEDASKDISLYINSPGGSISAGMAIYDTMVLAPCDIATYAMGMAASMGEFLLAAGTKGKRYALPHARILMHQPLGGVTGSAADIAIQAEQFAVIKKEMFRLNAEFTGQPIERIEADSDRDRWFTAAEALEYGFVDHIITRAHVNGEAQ
UniProt P9WPC3, whole entry partner: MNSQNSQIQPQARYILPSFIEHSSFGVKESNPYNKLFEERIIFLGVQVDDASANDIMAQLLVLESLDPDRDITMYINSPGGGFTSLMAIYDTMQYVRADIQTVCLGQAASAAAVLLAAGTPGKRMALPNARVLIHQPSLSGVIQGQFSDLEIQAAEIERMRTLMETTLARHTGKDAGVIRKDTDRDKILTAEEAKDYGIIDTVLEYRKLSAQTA
UniProt Q8IDJ8, 1-583: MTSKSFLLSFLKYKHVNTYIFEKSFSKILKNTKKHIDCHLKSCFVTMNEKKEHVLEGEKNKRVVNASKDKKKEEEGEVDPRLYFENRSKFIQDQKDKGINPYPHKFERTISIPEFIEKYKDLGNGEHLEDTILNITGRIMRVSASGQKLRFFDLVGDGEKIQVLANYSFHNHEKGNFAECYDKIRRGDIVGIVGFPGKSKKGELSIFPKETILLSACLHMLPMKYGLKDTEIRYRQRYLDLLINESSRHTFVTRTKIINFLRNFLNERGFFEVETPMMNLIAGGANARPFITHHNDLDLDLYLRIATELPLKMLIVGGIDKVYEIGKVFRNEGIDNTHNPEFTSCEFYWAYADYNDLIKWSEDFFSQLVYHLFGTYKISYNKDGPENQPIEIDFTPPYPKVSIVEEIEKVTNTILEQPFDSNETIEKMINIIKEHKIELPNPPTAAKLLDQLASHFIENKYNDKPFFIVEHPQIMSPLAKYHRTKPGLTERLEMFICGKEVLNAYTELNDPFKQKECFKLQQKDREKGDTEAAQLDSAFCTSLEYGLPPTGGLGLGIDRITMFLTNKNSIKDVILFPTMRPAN

Measurements from “University of Dundee, Small-Polar-MMV Screening Library” (2021), ChEMBL document CHEMBL3988442.

Leishmania in macrophages: 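Cell assay of Leishmania donovani living inside macrophages; the read-out is not stated. Compounds at 30 µM. Direction is inferred from retests: higher values go with stronger inhibition. Of about 69,000 compounds tested this way, about 1,000 (1.5%) reached 50% or more in at least one test.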
TcHisRS: 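Histidine-tRNA ligase, Trypanosoma cruzi CL Brener (UniProt Q4DA54). Enzyme assay of histidyl-tRNA synthetase; the read-out is not stated. Concentration: 30 µM. The record gives no direction; compounds that gave an IC50 in retests scored well above the rest, so higher reads as stronger inhibition. Of about 69,000 compounds tested this way, about 31 (0.045%) reached 50% or more in at least one test.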
ClpP1P2: 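ClpP1P2, Mycobacterium tuberculosis (UniProt P9WPC5 and UniProt P9WPC3). Protease assay of ClpP1P2, read by the AMC dye that it sets free. Compounds at 50 µM. Higher reads as stronger inhibition, judged from the few compounds that gave an IC50. Most other retested compounds had strongly negative values. About 69,000 compounds were tested under these conditions; 0.015% (about 10) showed 50% or more at least once.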
Toxoplasma: 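Assay of Toxoplasma gondii numbers, read through their beta-galactosidase reporter with a colour substrate. Tested at 10 µM. Higher reads as fewer parasites (inferred from which compounds were picked for retests). Size under these conditions: about 67,000 compounds, about 260 of them at 50% or above in at least one test.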
PfKRS1: 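Lysine-tRNA ligase, Plasmodium falciparum 3D7 (UniProt Q8IDJ8). Enzyme assay of the cytosolic lysyl-tRNA synthetase in 384-well plates, read by luminescence. Compounds at 30 µM. Direction is inferred from only a few compounds that gave an IC50; most scored high, so higher reads as stronger inhibition. Size under these conditions: about 69,000 compounds, about 49 of them at 50% or above in at least one test.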

Each number is a percent effect as filed.
How 0% and 100% were set is not recorded. Most values in the screen are low, and negative values occur.
This is an unselected part of the compounds tested.
Two or more numbers in one place are separate tests of the same structure; such repeats can differ widely.
A dash means the value is not listed here; it may have been measured.

Compound | Leishmania in macrophages | TcHisRS | ClpP1P2 | Toxoplasma | PfKRS1
CCC(NC(=O)c1cc(CC(C)C)nn1C)c1cccc(C)n1 (stereo unspecified) | 22.28 | -3.279 | -28.21 | -8.451 | -7.536
CCc1nc(C2CCCN2CC(=O)NCCc2ccsc2)no1 (stereo unspecified) | 13 | 7.602 | -2.038 | 89.95 | 0.8436
COc1ccc(F)cc1Cn1nc(C(N)=O)ccc1=O | -11.36 | 2.105 | -3.655 | -2.801 | -5.094
Clc1ccc(-c2nc(CN3CCCC3Cn3cncn3)co2)cc1 (stereo unspecified) | 32.26 | 1.729 | -31.98 | -4.153 | -0.2531
O=C(Cc1ccon1)NC1CCCN(c2ccccc2F)C1=O (stereo unspecified) | -35.48 | 9.453 | 11.79 | 0.6769 | 5.891
O=C(c1ccc(-c2ccccc2)[nH]c1=O)N1CCCn2ncnc21 | 18.62 | 4.04 | 10.22 | 5.487 | 0.7219
CC(=O)N1CCC(NC2(Cc3cc(CC(C)C)on3)COC2)CC1 | 23.28 | -1.493 | 6.853 | -2.586 | 0.8637
O=C(NC1CC1)[C@@H]1C[C@@H]2CCN(Cc3ccoc3)C[C@@H]2O1 | - | 10.58 | 2.765 | - | 3.069
COCCc1noc(CN2CCOC(CN(C)C)C2)n1 (stereo unspecified) | 17.04 | 1.17 | 7.447 | 15.28 | 1.766
CN(C)C(=O)CC1CC2(CCN(Cc3cccs3)CC2)c2ccccc21.O=C(O)C(F)(F)F (stereo unspecified) | 4.124 | - | - | -6.04 | -
CCC1=N[C@@]2(CC[C@@H]3CN(C(=O)Nc4ccccc4)C[C@@H]32)C(=O)N1C | - | 0.6135 | -9.013 | - | 5.014
COc1ccc(C(=O)NCCCNc2ncccn2)cc1F | 1.588 | 10.34 | 5.919 | - | 1.862
CC(=O)N1CCc2c(nc(-c3cccnc3)nc2N(C)CC(O)CO)C1 (stereo unspecified) | 11.22 | 3.96 | -5.94 | 2.592 | -0.2496
O=C(NC[C@@]1(COc2cnccn2)C[C@@H](O)[C@@H](O)C1)C1CCOCC1 | - | 2.488 | -7.267 | - | 4.83
Cn1c(=O)c2c(n3ncnc13)NC(=O)CC2c1cccc(Br)c1 (stereo unspecified) | 16.64 | 2.959 | -12.9 | 3.497 | 5.439
CCn1cnnc1CNC(=O)N1CCN(Cc2ccsc2)CC1 | 25.36 | 3.207 | -20.73 | 7.697 | 0.1355
CN(C(=O)NCCN1CCOCC1)C1CCN(c2ccccc2)C1=O (stereo unspecified) | 9.48 | 5.294 | -22.52 | -17.05 | 1.681
CC(C)NC(=O)N1CC[C@@H]2CN(Cc3ccccc3)S(=O)(=O)[C@@H]2CC1 | - | 0.5525 | -1.852 | - | -9.512
O=C(O)C(F)(F)F.[H][C@]12CCC[C@@]1(COc1cccnc1)CN(S(=O)(=O)N(C)C)C2 | 15.82 | - | - | 5.347 | -
O=c1oc(-c2cccs2)nn1CC(O)c1ccc(F)cc1 (stereo unspecified) | 33.13 | -4.564 | -1.293 | 6.828 | 3.915
Nc1nc2nc(C3CCN(C(=O)c4cscn4)C3)ccc2s1 (stereo unspecified) | 6.134 & 11.89 | 8.889 | 8.321 | 7.738 | 5.674
CC(C)C(=O)N1CCCC(Cc2ccccn2)C1 (stereo unspecified) | -31.84 | 4.857 | 5.243 | 8.843 | -0.02026
CCc1[nH]c2c(CNc3cncc(C(=O)N(C)C)n3)cc(F)cc2c1C | 41.06 | 9.268 | -30.36 | -21.67 | 2.689
Cc1cnc(C)c(N2CCCC(CO)(Cc3cccc(Cl)c3)C2)n1 (stereo unspecified) | -33.57 | 7.623 | -6.961 | 15.71 | -2.609
COc1cccc(CNC(=O)Nc2ccc3[nH]nnc3c2)c1OC | 32.45 | -18.63 | -5.839 | -4.356 | 8.596
Cn1cccc1C(=O)N1C[C@@H]2C[C@@H](c3nc(C4CC4)cs3)O[C@@H]2C1 | - | 10.05 | 22.48 | - | 6.895
CC(=O)N1CC=C(n2c(=O)[nH]c3ccccc32)CC1 | -4.015 | 2.273 | -3.873 | -4.114 | 3.555
Cc1ccc(NCc2cncc3c2CCN(Cc2ccccn2)C3)nn1 | - | 5.288 | -1.99 | - | 1.228
CCOCC1CN(Cc2cnn(C)c2)Cc2c1cnn2CC.O=C(O)C(F)(F)F (stereo unspecified) | 13.98 | - | - | 0.05945 | -
Cc1nc(C2CCCNC2)cc(N(Cc2nccn2C)C2CC2)n1 (stereo unspecified) | 25.43 | 0 | 2.605 | 14.36 | -1.778
[H][C@]12CCN(C(=O)c3ccc4c(c3)CCC4)CC[C@]1([H])N(C(C)C)C(=O)CO2 | 18.4 | - | - | -1.71 | -
Cc1nc(N2CCCC2)nc2c1CCN(C(=O)c1ccoc1C)CC2 | 54.38 | 6.533 | 7.933 | -8.627 | 3.51
CN(C)C(=O)COCc1cncc2c1CCN(Cc1ccccn1)C2 | - | 11.06 | 10.17 | - | 2.443
c1ccc(CN2CCOCC3(CCN(C4CCOCC4)C3)C2)cc1 (stereo unspecified) | - | 4.918 | 3.322 | - | -0.8549
CCc1nc(CN(C)C2CCN(CC(=O)N3CCOCC3)C2)no1 (stereo unspecified) | 13.41 | 5.78 | -31.13 | 0.6102 | -0.1418
CCn1c(CN2CCCC(Cn3cncn3)C2)nc2c(F)cccc21 (stereo unspecified) | 16.71 | 6.806 | -1.572 | 14.23 | 4.045
[H][C@]12CC[C@]([H])(CN(S(=O)(=O)N(C)C)C1)N(C(=O)c1cn(C)nc1C)C2 | 5.522 | - | - | -1.432 | -
CC(C)NC(=O)N1CCc2onc(C(=O)NCCN(C)C)c2C1.O=C(O)C(F)(F)F | 10.3 & 22.1 | - | - | -11.53 | -
Nc1cc(C(=O)N2CCC3(CC2)Nc2ccccc2NC3=O)ccn1 | -31.96 | 1.508 | 8.256 | -17.27 | -1.409
Cc1nn(C)c(C)c1-c1cnc(CC2CCNCC2)cn1 | 22.77 | 4.135 | -18.57 | 17.64 | 1.083
CC1N(CC2CC2)C(=O)COC12CCN(C(=O)c1ccno1)CC2 (stereo unspecified) | 29.63 | 6.135 | -2.939 | -5.266 | 2.045
[H][C@]12CCC[C@@]1(CO)CN(C(=O)c1cc(C)nc3cc(F)ccc13)C2 | -8.571 | - | - | -22.8 | -
Cn1cc(-c2ncc3c(c2C(=O)O)CCN(Cc2ccccn2)C3)cn1 | - | 10.55 | -259.8 | - | 4.799
Cn1ccnc1CN1CCN(CC(O)c2ccc(F)cc2)CC1 (stereo unspecified) | 34.85 | 7.289 | -39.29 | 19.92 | 0.9483
Cn1cnc2cc(CCC(=O)Nc3n[nH]c(C4CCCO4)n3)ccc21 (stereo unspecified) | -2.553 | 2.591 | -5.255 | 12.86 | 2.338
CCNS(=O)(=O)c1cccc(CSC)c1 | 64.35 | 0 | 8.466 | 19.9 | 6.681
Cc1ccc(S(=O)(=O)Nc2ccc(=O)n(C)c2)c(Br)c1 | 36.39 | 2.924 | -9.415 | -16.88 | -2.386
Cc1ccc(F)c2c1CCCN2Cc1cc(=O)n(C)c(=O)n1C | 21.8 | 13.13 | 17.79 | -3.63 | 8.471
CN1CCC(Cc2noc(-c3cn(Cc4ccccc4Cl)nn3)n2)CC1 | 15.78 | 3.409 | 4.233 | -5.23 | 4.369
Cc1ccc2c(n1)N(Cc1ccncc1)CCN(S(C)(=O)=O)C2 | - | 7.563 | 7.38 | - | -0.5981
O=c1cc2c(nn1CN1CCOCC1)CCC2 | 0.7185 | 1.639 | 4.588 | -4.065 | 10.62
[H][C@@]12CCN(C(=O)c3cccc(C)n3)C[C@@]1([H])O[C@H](C)C2 | -3.626 | - | - | 0.767 | -
O=c1[nH]c(CCN2CCN(CC(F)(F)F)CC2)nc2ccccc12 | -5.754 | 5.172 | -1.432 | 0.9091 | 9.567
Cn1nc(CN2CCOCC2)c2c1CN(Cc1ccsc1)C2.O=C(O)C(F)(F)F.O=C(O)C(F)(F)F | 22.68 | - | - | -5.423 | -
CCc1noc(CNc2cc3c(cc2Cl)OCCCO3)n1 | -26.74 | 6.548 | 7.838 | -4.478 | 1.216
CN(Cc1noc(C2CC2)n1)C1CCN(CCn2cccn2)C1 (stereo unspecified) | 9.724 | 3.478 | -0.2284 | 15.74 | 10.35
CCCSc1ncccc1C(=O)NCc1ccc(N(C)C)cc1 | 30.06 | -2.273 | 6.457 | 4.49 | 1.174
CCN(CC)C(=O)Cc1csc(C(C)C)n1 | 0.3205 | 3.867 | 3.74 | 10.57 | -0.8655
CC1CCCCN1C1CN(C(=O)c2sccc2S(N)(=O)=O)C1 (stereo unspecified) | 8.329 | -0.6369 | -3.115 | -3.668 | -0.6893
CC(=O)N1CCOCC(Cc2ccc3c(ccn3C(C)=O)c2)C1 (stereo unspecified) | 21.69 | 6.061 | -7.695 | -3.906 | 1.175
COCCCN1Cc2cccc(NC(=O)C(C)(C)C)c2C1 | 4.79 | 6.667 | 17.89 | 13.37 | 5.878